# Reference: PubChem BioAssay AID493014 (National Center for Advancing Translational Sciences (NCATS), 2011)
# In all, about 340,000 compounds went through this assay and about 170 (0.05%) were called active. Inconclusive means that the source gave no clear call. Such entries were picked first, then a sample of the others. Calls come from the whole dose curve; as a rule, active = well fitted inhibition curve with a large enough effect in the signal ratio, with a control signal flat (not every such curve was filed as active); inconclusive = small, poorly fitted or top-dose-only effect, or effect the other way, or a change in a side signal; inactive = flat fitted curve, though single readings scatter; the % refers to the signal ratio. Potencies of inconclusive entries are doubtful fits and often do not repeat.
# Test: qHTS Assay to Find Inhibitors of Chronic Active B-Cell Receptor Signaling;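 for activity change, negative = inhibition: plate controls were basal doxycycline-induced cells for no effect and cells given 10 µM MG132 for full effect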
# Settings: ABC-DLBCL IkBa-CBG/CBR reporter, luminescence ratio (green luciferase fused to IkBa over red control in TMD8 lymphoma cells), 4 h; activity change, negative = inhibition: at 46.1 µM (top of the series)
# Outline: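 TMD8 ABC-DLBCL cells carrying doxycycline-inducible green luciferase fused to IkappaBalpha plus unfused red luciferase were exposed to compounds (up to 46 uM) for 4 hrs at 37C. Activity came from the overlap-corrected green/red luminescence ratio.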
# Potency is the fitted concentration of half-maximal effect.
SMILES,"activity change, negative = inhibition",Potency
COc1cc(/C=C/c2nnc3c4ccccc4ncn23)cc(OC)c1OC,inconclusive: -20.3%,
Cc1ccc(NC(=O)c2noc3c2CCc2ccccc2-3)cc1,,"inconclusive: 13 µM [falling, partial curve]"
CCCn1cnc2cc(NCc3cccc(OC)c3O)ccc21,inconclusive: 1.69%,
COc1ccc(OCC(O)CNC(=O)Nc2ccc(F)cc2)cc1 (configuration not stated),inactive: 0.371%,
Cc1c(Cl)cccc1NC(=S)N(Cc1ccco1)C(C)c1ccccn1 (configuration not stated),inactive: -8.47%,
COc1ccc(C2NC(C(=O)O)Cc3c2[nH]c2ccccc32)cc1CN1CCN(c2ccc(F)cc2)CC1 (configuration not stated),inconclusive: -12.2%,
CCOCCCn1c(C)nc2c(c1=O)c1nc3ccccc3nc1n2-c1ccc2c(c1)OCCO2,inactive: 6.48%,
O=C(O)c1cccc(-c2noc(-c3cccc(Cl)c3)n2)c1,,"inconclusive: 3.26 µM [falling, partial curve]"
COc1ccccc1CNc1ccc(C(=O)O)cc1,,"inconclusive: 16.4 µM [falling, partial curve, poor fit]"
COc1ccc(C(NC(C)=O)c2cc(Cl)c3cccnc3c2O)cc1OC (configuration not stated),inactive: 4.19%,
CSCCC(NS(=O)(=O)/C=C/c1ccccc1)C(=O)O (configuration not stated),inconclusive: -0.299%,
O=C(CSc1nc2ccccc2s1)Nc1nccs1,inconclusive: -13.8%,
CN1C2CCC1CC(OC(c1ccccc1)c1ccccc1)C2 (configuration not stated),,"inconclusive: 17.8 µM [falling, single point]"
O=C(Nc1cccc(O)c1)c1cnn2cccnc12,,"inconclusive: 2.31 µM [falling, full curve]"
Cc1ccc(NC(=S)NCC(C)CSc2ccc(Cl)cc2)cc1 (configuration not stated),inconclusive: -4.93%,
O=C(Cn1cnc2cc([N+](=O)[O-])ccc2c1=O)N(Cc1ccccc1)C1CCS(=O)(=O)C1 (configuration not stated),,"inconclusive: 7.94 µM [falling, partial curve]"
COc1ccc(OCCCC(=O)ON=C(N)c2ccccc2Cl)cc1,inactive: -7.32%,
O=C(O)c1ccc(Nc2nc(-c3ccccc3)nc3ccccc23)cc1,inactive: -1.21%,
COc1ccccc1/C=C/C(=O)NCC(=O)N/N=C/c1ccccc1[N+](=O)[O-],,"inconclusive: 3.55 µM [falling, full curve, poor fit]"
O=C(CSc1nnc(CNc2ccc(F)cc2)o1)OC1CCCCC1,inactive: -6.65%,
O=C(NNC(=O)c1cccs1)c1ccc(Br)cc1,,"inconclusive: 35.5 µM [falling, single point]"
CC1CCCC(NC(=O)Cc2ccc(Br)cc2)C1C (configuration not stated),inactive: -2.96%,
Cc1ccc(CCNC(=O)CCSCc2ccccc2F)cc1,inactive: 3.07%,
Cc1noc(C)c1S(=O)(=O)N1CCC(C(=O)N2CCN(Cc3ccc4c(c3)OCO4)CC2)CC1,inconclusive: -10.7%,
COCCNc1c2c(nc3ccccc13)CCC2,inactive: -0.336%,
Cc1ccc2nc(SC(Cc3cc(Cl)ccc3Cl)C(=O)O)[nH]c2c1 (configuration not stated),inactive: 20.6%,

SMILES,"activity change, negative = inhibition",Potency
CC1Oc2ccccc2N(CC(=O)N2CCCCCC2)C1=O (configuration not stated),inactive: -3.72%,
COc1ccc(C2CC(=O)Oc3cc(O)ccc32)cc1 (configuration not stated),inconclusive: -9%,
Cc1cc(NC(=O)Cn2nnc(-c3ccccc3N)n2)no1,inconclusive: 7.91%,
CC1(C)CC(=O)C(C=NCCN2CCN(C(=O)C34CC5CC(CC(C5)C3)C4)CC2)=C(O)C1,inconclusive: 3.51%,
Cc1ccc(NC(=O)C(Nc2cccc(C)c2)c2ccccc2)cc1 (configuration not stated),inconclusive: 8.07%,
COc1ccc2oc(C(=O)N3CCN(S(=O)(=O)c4ccc(F)cc4)CC3)c(C)c2c1,inactive: -1.93%,
Cc1sc2ncn(-n3c(C)ccc3C)c(=O)c2c1C,inactive: -0.203%,
Cc1ccc(C2CC(c3cccs3)=NN2C(=O)c2ccc(Br)o2)cc1 (configuration not stated),inconclusive: -13.3%,
O=C(O)c1cccc(-n2cccc2/C=C/[N+](=O)[O-])c1,inconclusive: 4.68%,
O=C(Nc1nnc(-c2ccc(Br)cc2)o1)c1cccc(N2C(=O)CCC2=O)c1,,"inconclusive: 29.1 µM [falling, single point]"
CCCC(=O)Nc1ccc(C(=O)Nc2cccc(OC)c2)cc1,inconclusive: 2.23%,
Cc1ccc(-c2cc(C(=O)Nc3ccc(S(=O)(=O)Nc4onc(C)c4C)cc3)[nH]n2)c(O)c1,,"inconclusive: 11.2 µM [falling, partial curve]"
Brc1ccccc1-c1nnc(COc2ncnc3c2cnn3-c2ccccc2)o1,inconclusive: 28.8%,
CCOC(=O)c1c(C)[nH]c(C)c1C(=O)COC(=O)c1ccc(S(=O)(=O)N(CC)CC)cc1,inactive: 3.42%,
C/C(=N\NC(=O)c1ccc2c(c1)OCO2)c1ccc(O)cc1,,"inconclusive: 31.6 µM [rising, single point]"
N#C/C(=C\c1cn(CCOc2ccccc2F)c2ccccc12)C(=O)NCc1cccs1,inactive: -0.16%,
CCN1CC=C2C(C#N)=C(N)C(C#N)(C#N)C(CCc3ccccc3)C2C1 (configuration not stated),inconclusive: 5.62%,
COc1ccccc1CN1CCC(CNS(=O)(=O)c2cc(-c3cc(C)no3)ccc2C)CC1,,"inconclusive: 15.8 µM [falling, partial curve, poor fit]"
CC(C)[C@H](NC(=O)N1CCn2c1nc1ccccc12)C(=O)NC1CC1,inconclusive: -55.6%,
Cc1ccc(CNC(=O)[C@H](C)[C@H]2C[C@]2(C)[C@H](NC(=O)OCc2ccccc2)c2ccccc2)o1,inconclusive: -25.6%,
COc1ccc(N(CC(=O)Nc2ccc3c(c2)OCO3)S(C)(=O)=O)c(OC)c1,inconclusive: -5.42%,
COC(=O)c1ccc2c(=O)n(CCN3CCOCC3)c(=S)[nH]c2c1,inconclusive: 8.46%,
CCOc1ccc(/C=N/NC(=O)C(=O)N2CCCCCC2)c2ccccc12,,"inconclusive: 35.5 µM [falling, single point]"
CNc1nc2c(N)ncnc2n1[C@H]1O[C@@H](CO)[C@H](O)[C@@H]1O,inconclusive: -27.8%,
COc1c(C)cc(Br)cc1C(=O)Nc1ccc(C)cc1[N+](=O)[O-],,"inconclusive: 9.2 µM [falling, partial curve, poor fit]"
COC(=O)c1ccc(NC(=O)CCc2nnc3ccc(N4CCC5(CC4)OCCO5)nn23)cc1,inconclusive: -1.68%,

# Gathered by group, those above with a nitro group on carbon (4)
SMILES,"activity change, negative = inhibition",Potency
O=C(Cn1cnc2cc([N+](=O)[O-])ccc2c1=O)N(Cc1ccccc1)C1CCS(=O)(=O)C1 (configuration not stated),,"inconclusive: 7.94 µM [falling, partial curve]"
COc1ccccc1/C=C/C(=O)NCC(=O)N/N=C/c1ccccc1[N+](=O)[O-],,"inconclusive: 3.55 µM [falling, full curve, poor fit]"
O=C(O)c1cccc(-n2cccc2/C=C/[N+](=O)[O-])c1,inconclusive: 4.68%,
COc1c(C)cc(Br)cc1C(=O)Nc1ccc(C)cc1[N+](=O)[O-],,"inconclusive: 9.2 µM [falling, partial curve, poor fit]"
